Values from PubChem BioAssay AID1259254 (NCATS, 2017)
Test: 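Gene knock-downs that lead to re-replication, shown by excess G2 DNA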 (primary screen). System: human HCT116 colorectal cancer cells. Reagents: single siRNA against human genes. Time to read-out: 3 days. Measurement: 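Nuclei stained with Hoechst and imaged; cell-cycle phase assigned by DNA content; G2 share scaled per plate, non-targeting siRNA 0%, GMNN siRNA 100%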. Reading the numbers: G2 robust z-score and G2 cells, % of GMNN control: higher = more G2 cells, more excess DNA replication. Hit rule: 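An siRNA counts as active if its G2 robust z-score lies at least 5 MADs above the screen median; here such calls match roughly 38% of GMNN control or more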.
The deposit covers about 59,000 reagents; below is an unselected part. About 1,550 of all reagents (2.6%) count as active. 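G2 share is only a proxy for re-replication; each gene was hit by three separate siRNAs, and active genes were retested.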 Unmarked entries are inactive. Reagents against one gene are numbered here. Not all columns of the deposit are shown. Not stated in the record: the amount of reagent.

Target gene | siRNA no. | G2 robust z-score | G2 cells, % of GMNN control
NEDD8 (NEDD8 ubiquitin like modifier) | 1 | 4.93 | 37.7
NEDD8 (NEDD8 ubiquitin like modifier) | 2 | 7.04 (active) | 52.5
NEDD8 (NEDD8 ubiquitin like modifier) | 3 | 8.02 (active) | 59.4
NLRP6 (NLR family pyrin domain containing 6) | 1 | -1 | -4.07
NLRP6 (NLR family pyrin domain containing 6) | 2 | -0.852 | -3.03
NLRP6 (NLR family pyrin domain containing 6) | 3 | -0.428 | -0.0447
CD200 (CD200 molecule) | 1 | -0.789 | -2.59
CD200 (CD200 molecule) | 2 | -0.83 | -2.87
CD200 (CD200 molecule) | 3 | -0.108 | 2.21
SPATA8 (spermatogenesis associated 8) | 1 | -0.278 | 1.01
SPATA8 (spermatogenesis associated 8) | 2 | 0.0529 | 3.34
SPATA8 (spermatogenesis associated 8) | 3 | 1.87 | 16.1
ASB1 (ankyrin repeat and SOCS box containing 1) | 1 | -0.607 | -1.31
ASB1 (ankyrin repeat and SOCS box containing 1) | 2 | -0.0556 | 2.58
ASB1 (ankyrin repeat and SOCS box containing 1) | 3 | 2.39 | 19.8
TAS2R16 (taste 2 receptor member 16) | 1 | 1.29 | 12
TAS2R16 (taste 2 receptor member 16) | 2 | 1.39 | 12.8
TAS2R16 (taste 2 receptor member 16) | 3 | -0.548 | -0.891
CDR1 (cerebellar degeneration related 1) | 1 | 0.134 | 3.91
CDR1 (cerebellar degeneration related 1) | 2 | 1.82 | 15.8
CDR1 (cerebellar degeneration related 1) | 3 | 3.16 | 25.2
LINC02843 (long independently transcribed non-coding RNA 2843) | 1 | 0.252 | 4.74
LINC02843 (long independently transcribed non-coding RNA 2843) | 2 | -0.713 | -2.05
LINC02843 (long independently transcribed non-coding RNA 2843) | 3 | 0.0837 | 3.56
MEPE (matrix extracellular phosphoglycoprotein) | 1 | 0.604 | 7.22
MEPE (matrix extracellular phosphoglycoprotein) | 2 | 0.742 | 8.19
MEPE (matrix extracellular phosphoglycoprotein) | 3 | -0.318 | 0.732
FHIT (fragile histidine triad diadenosine triphosphatase) | 1 | 4.44 | 34.2
FHIT (fragile histidine triad diadenosine triphosphatase) | 2 | -1.18 | -5.31
FHIT (fragile histidine triad diadenosine triphosphatase) | 3 | -0.34 | 0.579
ARHGEF5 (Rho guanine nucleotide exchange factor 5) | 1 | 1.21 | 11.5
ARHGEF5 (Rho guanine nucleotide exchange factor 5) | 2 | 1.12 | 10.8
ARHGEF5 (Rho guanine nucleotide exchange factor 5) | 3 | -0.968 | -3.84
THA1P (threonine aldolase 1, pseudogene) | 1 | 3.15 | 25.1
THA1P (threonine aldolase 1, pseudogene) | 2 | -0.823 | -2.82
THA1P (threonine aldolase 1, pseudogene) | 3 | 1.16 | 11.1
U2AF1L4 (U2 small nuclear RNA auxiliary factor 1 like 4) | 1 | -0.488 | -0.463
U2AF1L4 (U2 small nuclear RNA auxiliary factor 1 like 4) | 2 | 1.61 | 14.3
U2AF1L4 (U2 small nuclear RNA auxiliary factor 1 like 4) | 3 | -0.478 | -0.395
PALM3 (paralemmin 3) | 1 | 4.44 | 34.2
PALM3 (paralemmin 3) | 2 | 2.34 | 19.4
PALM3 (paralemmin 3) | 3 | 1.81 | 15.7
CCT6B (chaperonin containing TCP1 subunit 6B) | 1 | -0.43 | -0.0606
CCT6B (chaperonin containing TCP1 subunit 6B) | 2 | 0.272 | 4.88
CCT6B (chaperonin containing TCP1 subunit 6B) | 3 | -0.198 | 1.58
SOSTDC1 (sclerostin domain containing 1) | 1 | 2.83 | 22.9
SOSTDC1 (sclerostin domain containing 1) | 2 | -0.316 | 0.742
SOSTDC1 (sclerostin domain containing 1) | 3 | -1.04 | -4.36
DENND5A (DENN domain containing 5A) | 1 | -0.32 | 0.716
DENND5A (DENN domain containing 5A) | 2 | 2.15 | 18.1
DENND5A (DENN domain containing 5A) | 3 | 6.23 (active) | 46.8
MLLT6 (MLLT6, PHD finger containing) | 1 | -0.983 | -3.95
MLLT6 (MLLT6, PHD finger containing) | 2 | 0.336 | 5.33
MLLT6 (MLLT6, PHD finger containing) | 3 | -0.908 | -3.42
MINAR1 (membrane integral NOTCH2 associated receptor 1) | 1 | -0.243 | 1.26
MINAR1 (membrane integral NOTCH2 associated receptor 1) | 2 | -0.39 | 0.226
MINAR1 (membrane integral NOTCH2 associated receptor 1) | 3 | 3.69 | 28.9
TRAPPC6B (trafficking protein particle complex subunit 6B) | 1 | -0.149 | 1.92
TRAPPC6B (trafficking protein particle complex subunit 6B) | 2 | 0.861 | 9.02
TRAPPC6B (trafficking protein particle complex subunit 6B) | 3 | -0.117 | 2.14
LSM14A (LSM14A mRNA processing body assembly factor) | 1 | 2.28 | 19
LSM14A (LSM14A mRNA processing body assembly factor) | 2 | -0.399 | 0.162
LSM14A (LSM14A mRNA processing body assembly factor) | 3 | 0.273 | 4.89
CRIP1 (cysteine rich protein 1) | 1 | 4.61 | 35.4
CRIP1 (cysteine rich protein 1) | 2 | 0.971 | 9.8
CRIP1 (cysteine rich protein 1) | 3 | 3.07 | 24.6
NAA15 (N-alpha-acetyltransferase 15, NatA auxiliary subunit) | 1 | -1.22 | -5.59
NAA15 (N-alpha-acetyltransferase 15, NatA auxiliary subunit) | 2 | 0.227 | 4.56
NAA15 (N-alpha-acetyltransferase 15, NatA auxiliary subunit) | 3 | 2.13 | 17.9
PTCH1 (patched 1) | 1 | 0.0198 | 3.11
PTCH1 (patched 1) | 2 | -0.855 | -3.05
PTCH1 (patched 1) | 3 | 2.28 | 19
DNMT3B (DNA methyltransferase 3 beta) | 1 | -0.578 | -1.1
DNMT3B (DNA methyltransferase 3 beta) | 2 | 0.204 | 4.4
DNMT3B (DNA methyltransferase 3 beta) | 3 | -0.52 | -0.691
GCLC (glutamate-cysteine ligase catalytic subunit) | 1 | -1.25 | -5.84
GCLC (glutamate-cysteine ligase catalytic subunit) | 2 | 1.79 | 15.5
GCLC (glutamate-cysteine ligase catalytic subunit) | 3 | 3.79 | 29.6
THAP12 (THAP domain containing 12) | 1 | 1.64 | 14.5
THAP12 (THAP domain containing 12) | 2 | -0.683 | -1.84
THAP12 (THAP domain containing 12) | 3 | 3.94 | 30.7
ANAPC13 (anaphase promoting complex subunit 13) | 1 | 4.72 | 36.2
ANAPC13 (anaphase promoting complex subunit 13) | 2 | 0.203 | 4.4
ANAPC13 (anaphase promoting complex subunit 13) | 3 | 0.233 | 4.61
OR4D5 (olfactory receptor family 4 subfamily D member 5) | 1 | -0.423 | -0.0107
OR4D5 (olfactory receptor family 4 subfamily D member 5) | 2 | -0.126 | 2.08
OR4D5 (olfactory receptor family 4 subfamily D member 5) | 3 | 0.332 | 5.31

In a second layout: 10 of the entries above
ASB1 (ankyrin repeat and SOCS box containing 1) #2
- G2 robust z-score: -0.0556
- G2 cells, % of GMNN control: 2.58

ASB1 (ankyrin repeat and SOCS box containing 1) #3
- G2 robust z-score: 2.39
- G2 cells, % of GMNN control: 19.8

TAS2R16 (taste 2 receptor member 16) #1
- G2 robust z-score: 1.29
- G2 cells, % of GMNN control: 12

TAS2R16 (taste 2 receptor member 16) #2
- G2 robust z-score: 1.39
- G2 cells, % of GMNN control: 12.8

TAS2R16 (taste 2 receptor member 16) #3
- G2 robust z-score: -0.548
- G2 cells, % of GMNN control: -0.891

CDR1 (cerebellar degeneration related 1) #1
- G2 robust z-score: 0.134
- G2 cells, % of GMNN control: 3.91

CDR1 (cerebellar degeneration related 1) #2
- G2 robust z-score: 1.82
- G2 cells, % of GMNN control: 15.8

CDR1 (cerebellar degeneration related 1) #3
- G2 robust z-score: 3.16
- G2 cells, % of GMNN control: 25.2

LINC02843 (long independently transcribed non-coding RNA 2843) #1
- G2 robust z-score: 0.252
- G2 cells, % of GMNN control: 4.74

LINC02843 (long independently transcribed non-coding RNA 2843) #2
- G2 robust z-score: -0.713
- G2 cells, % of GMNN control: -2.05
